Results taken from US20260199496A1, “LINKER, LINKER-CONTAINING ANTIBODY DRUG CONJUGATE, AND PREPARATION METHOD THEREFOR AND USE THEREOF” (CHENGDU CHIPSCREEN NEWWAY BIOSCIENCES CO., LTD., priority 2022, published 2026).
Some of these results come from one statement about several compounds together.

Test system: A375-hPDL1-Luciferase cells
Assay: Inhibition of A375 in co-culture with human PBMCs (luciferase)
Assay type: cell-based
Conditions: PBMC:A375 E:T 5:1, Matrigel, 6 days; listed as chidamide
Protocol: Cryopreserved PBMCs were taken out from a liquid nitrogen tank and added to 8 mL of pre-heated RPMI 1640 medium, and the mixture was centrifuged at 500 g for 10 min. The supernatant was discarded, and the PBMCs were resuspended in a small amount of RPMI 1640 medium. Then, the cell suspension was 10-fold diluted, and 20 μL of dilution was taken for cell counting. The cells were resuspended to 5E6 cells/mL. The A375-hPDL1-Luciferase cell suspension was collected, and 20 μL was taken for cell counting. The cells were resuspended to 1E6 cells/mL. The PBMC and A375-hPDL1-Luciferase cell suspensions were mixed at equal volumes to prepare a cell mixture with an E:T ratio of 5:1, and the mixture was adjusted to a total volume of 1500 L using RPMI 1640 complete medium. Matrigel was thawed on ice, and 1500 L of the thawed Matrigel was mixed with the cell mixture. The resulting mixture was added to a black 384-well plate at 20 μL/well, which was then placed at 37° C. for 10 min for solidification. […] The dilutions were added to the 384-well plate at 30 μL/well, and the cells were cultured at 37° C. with 5% CO2 for 6 days. Then, the 384-well plate was taken out, and Bio-Lite Luciferase Assay System was added at 20 μL/well. The mixture was incubated for 5-10 min and then assayed using a multi-mode microplate reader. The results are shown in FIG. 31, FIG. 32, and Table 7.

## Nc1cc(F)ccc1NC(=O)c1ccc(CNC(=O)/C=C/c2cccnc2)cc1 [Chidamide, reference compound]
  IC50: > 30 nM
